Test results published in the supplement of paper PMC12578635.
The other results are listed elsewhere or left out. Cut-off read from the data, not from the text of the source: active = 150% or more and inactive = the rest. Single values are uncertain, as repeats are few or missing.

These compounds were tested on Staphylococcus aureus JE2-lux inside RAW 264.7 macrophages (assay: intracellular bacterial bioluminescence relative to DMSO vehicle; higher = higher intracellular bacterial metabolic activity). Settings: 10 µM; treatment time 4 h; gentamicin 50 µg/ml.

Intracellular bacterial bioluminescence, inactive:
CCOC(=O)c1cc(C)nc2c1c(=O)n(Cc1ccccc1Cl)c(=O)n2C 124%
COc1cccc(NC(=O)CCc2c(C)[nH]c3nc(NCc4ccccc4)nn3c2=O)c1 115%
NC(=O)CCSc1nnc(SCC(=O)c2ccccc2)s1 74%
Cn1nc(C(C)(C)C)cc1C(=O)Nc1ccccc1NC(=O)c1ccccn1 73.9%
Cc1nc(Nc2ccc(NC(=O)c3ccc4c(c3)OCO4)cc2)cc(N(C)C)n1 91%
Cc1ccc(Cc2cnc(NC(=O)c3cc4ccccc4c(=O)o3)s2)cc1 91.3%
O=C(NC1CCN(C(=O)Nc2cccc(Cl)c2)CC1)c1ccccc1 108%
N#Cc1ccc(C(=O)N(CCN2CCOCC2)c2nc3ccccc3s2)cc1 116%
O=C(CSc1nc(O)c2nc[nH]c2n1)OCc1ccccc1 114%
Cc1ccc(N(Cc2ccc3c(c2)CN(S(=O)(=O)c2cccc(C)c2)CCO3)C(=O)C(C)C)cc1 41.2%
COc1ccc(-c2noc(N3CCC(C(=O)N4CCN(c5cc(Cl)ccc5C)CC4)CC3)n2)cc1 124%
Cc1ccc2cc(C#N)c(N3CCN(C(=O)c4ccc(F)cc4)CC3)nc2c1 101%
COc1ccccc1CNC(=O)c1sc2nc(C)nc(N3CCCC3)c2c1C 64.6%
Cc1cc(C)c2cc(CN(Cc3ccc4c(c3)OCO4)C(=O)c3ccco3)c(Cl)nc2c1 92.9%
CCN(Cc1ccccc1)c1ncnc2c1cnn2-c1cccc(Cl)c1 70.3%
Cc1ccc2cc(C)c3nn(CCNC(=O)Cc4c(C)nc(C)nc4O)c(=O)n3c2c1 101%
CCc1ccc2c(c1)C(O)(C1SC(N)=NC1=O)C(=O)N2 (centres undefined) 92.3%
Cc1cccn2c(=O)c3cc(S(=O)(=O)c4ccc(Cl)cc4)c(=N)n(Cc4ccncc4)c3nc12 115%
Cc1ccc(C)c2sc(N(Cc3ccccn3)C(=O)c3cccc(S(C)(=O)=O)c3)nc12 115%
COc1ccc(OC)c2[nH]c(=O)c(CCN3C(=O)c4ccccc4C3=O)cc12 116%
Cc1cccc(-c2noc(C)c2C(=O)NCCn2ccnc2C)c1 116%
O=C(NCc1ccccn1)C(=O)NCC(c1ccco1)N1CCc2ccccc21 (centres undefined) 90%
O=S(=O)(c1ccc(Cl)cc1)c1nnn2c1nc(NCc1ccc3c(c1)OCO3)c1sccc12 112%
COc1cccc(-c2cc(=O)n3c4ccccc4n(CC(=O)NC4CCCC4)c3n2)c1 110%

2 compounds drawn at random from the list so far, as already listed:
Intracellular bacterial bioluminescence, inactive:
COc1cccc(NC(=O)CCc2c(C)[nH]c3nc(NCc4ccccc4)nn3c2=O)c1 115%
O=C(NCc1ccccn1)C(=O)NCC(c1ccco1)N1CCc2ccccc21 (centres undefined) 90%
